# According to the supplement of paper PMC8166895:
# “And” between values parts separate entries of the source, which are not always exact repeats. Equal entries are not always repeated. Structures can show the parent of a compound that is named as a salt. Some of the results follow. Most values lie at the level of the controls, where differences are scatter.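 A single-replicate pilot screen of approved drugs and clinical or known-target compounds measured melting temperature via differential scanning fluorimetry. Top stabilizing hits raised the melting point by 2 °C or more; negative shifts indicate destabilization.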
# Tested on: SARS-CoV-2 main protease (Mpro, nsp5)
# Test: thermal shift ΔTm of Mpro relative to plate average Tm; higher = stronger thermal stabilization of Mpro (binding)
# Conditions: 10 µM; protein concentration 1 µM
row,Structure (SMILES),thermal shift ΔTm of Mpro
1,CN(C)CC1CCOC1(c1ccccc1)c1ccccc1 (centres undefined) [Anavex 2-73],0.0776 °C
2,O=[N+]([O-])c1cc(C(F)(F)F)cc([N+](=O)[O-])c1NNC(=S)Nc1ccc(F)cc1,0.335 °C
3,COc1cc2ncnc(Nc3ccc(Cl)cc3F)c2cc1OC,-0.0416 °C
4,Oc1ccc(Nc2nc(-c3ccc(Cl)cc3)cs2)cc1,0.347 °C
5,CNC(=O)c1c(C)oc2cc(Oc3ncnc4cc(OC)c(OC)cc34)ccc12 [Fruquintinib],0.153 °C
6,CC(C)(O)c1nc(-c2cccc(CNC(=O)c3cnc(-c4ccccn4)nc3)c2)no1,-0.0235 °C
7,N#Cc1ccc2[nH]c(O)c(-c3ccc(CN4CCOCC4)cn3)c2c1,-0.153 °C
8,Cc1ccc(C(=O)NCCCCCC(=O)Nc2ccccc2N)cc1,0.104 °C
9,CCN(CC)CCCC(C)Nc1c2ccc(Cl)cc2nc2ccc(OC)cc12 (centres undefined) [Quinacrine 2HCl],-0.107 °C
10,Cc1ccc(O)cc1.Cc1cccc(O)c1.Cc1ccccc1O [Cresol],-0.0238 °C
11,Cc1nc(C)c(Cl)c(O)c1Cl [Clopidol],0.157 °C
12,CCCCCCCCCCCCCCCC[N+](C)(C)CCN(Cc1ccc(OC)cc1)c1ncccn1 [Thonzonium Bromide],-0.332 °C
13,CC(C)(C)NS(=O)(=O)c1cncc(-c2cc(F)c3nc(N)nn3c2)c1,-0.0848 °C
14,O=C(O)P(=O)(O)O [Foscarnet Sodium],-0.0185 °C
15,CC(C)NCC(O)c1ccc(NS(C)(=O)=O)cc1 (centres undefined) [Sotalol],0.0245 °C
16,C#C[C@]1(O)CC[C@H]2[C@@H]3CCc4cc(OC)ccc4[C@H]3CC[C@@]21C [Mestranol],0.127 °C
17,CN(C)C(=O)c1ccc(S(=O)(=O)c2ccc(NC(=O)[C@@](C)(O)C(F)(F)F)c(Cl)c2)cc1,-0.295 °C
18,COc1cc(C=O)ccc1O [Vanillin],-0.0824 °C
19,C1=N/C2=N/c3ccc(OCCN4CCCC4)c(c3)COC/C=C/COCc3cccc(c3)C(=C1)N2 [Pacritinib (SB1518)],-0.241 °C
20,COc1ccc2cccc(CCNC(C)=O)c2c1 [Agomelatine],0.111 °C
21,Cc1c(Cl)c(OCC(=O)N2CCN(C)CC2)nc2sc(C(=O)NC3CC3)c(N)c12,-0.175 °C

row,Structure (SMILES),thermal shift ΔTm of Mpro
1,CNc1ncc2cc(-c3cc(NC(=O)NCCC(C)(C)C)c(F)cc3C)c(C)nc2n1,0.0611 °C
2,"Cc1[nH]c(/C=C2\C(=O)Nc3ccccc32)c(C)c1CCC(=O)O [TSU-68 (SU6668, Orantinib)]",0.248 °C
3,CC(C)c1cnn2c(NCc3ccccc3-n3cccn3)nc(OC3CCCNC3)nc12 (centres undefined),0.215 °C
4,CNCC(O)c1ccc(O)c(O)c1 (racemic) [DL-Adrenalin],-0.107 °C
5,CN(CCOc1ccc(NS(C)(=O)=O)cc1)CCc1ccc(NS(C)(=O)=O)cc1 [Dofetilide],0.0498 °C
6,CC(=O)N1CCN(c2ccc(OCC3COC(Cn4ccnc4)(c4ccc(Cl)cc4Cl)O3)cc2)CC1 (centres undefined) [Ketoconazole],0.385 °C
7,O=c1c(-c2ccc(O)cc2)coc2cc(O)cc(O)c12 [Genistein],0.396 °C
8,CN1CC[C@@]23CCCC[C@@H]2[C@@H]1Cc1ccc(O)cc13 [Dextrorphan tartrate],0.0239 °C
9,OCc1ccc(-c2ccc(-c3ccc(CO)s3)o2)s1,-0.0446 °C
10,Cc1c(-c2ccc(N3CCc4cccc(C(=O)Nc5nc6ccccc6s5)c4C3)nc2C(=O)O)cnn1CC12CC3CC(CC(C3)C1)C2,-0.358 °C
11,O=C(O)c1ccc(Nc2ncc3c(n2)-c2ccc(Cl)cc2C(c2c(F)cccc2F)=NC3)cc1,0.193 °C
12,Clc1cc2c(NC3CCCC3)nnc(-c3ccncc3)c2cc1Cl,-0.126 °C
13,Cc1cc(N2CCOCC2)ccc1Nc1nc(NC2CCCCC2)c2[nH]cnc2n1,-0.368 °C
14,C[C@H](NC(=O)Cc1cc(F)cc(F)c1)C(=O)N[C@@H]1C(=O)N(C)c2ccccc2-c2ccccc21,-0.103 °C
15,CSc1cccc(Nc2ncc3cc(-c4c(Cl)cccc4Cl)c(=O)n(C)c3n2)c1,-0.0659 °C
16,O=C(NC1CCCCC1)N(Cc1ccccc1)CC1CCNCC1,0.0723 °C
17,CC(C)(C)c1ccc(S(=O)(=O)Nc2ccc(-n3ccnc3)cc2)cc1,-0.00392 °C
18,Cc1cc(-c2nc(-c3ccc(OC(F)(F)F)cc3)no2)nn1Cc1ccnc(N2CCN(C3CC3)CC2)c1,0.224 °C
19,Cc1ccc2c(Nc3ccc(Cl)cc3)nccc2c1Nc1ncccc1-c1ncnc2nc[nH]c12 [B-Raf inhibitor 1],0.338 °C
20,COC(=O)[C@H]1[C@H]2C[C@@H]3c4[nH]c5cc(OC)ccc5c4CCN3C[C@H]2C[C@@H](OC(=O)c2cc(OC)c(OC)c(OC)c2)[C@@H]1OC [Reserpine],-0.179 °C
21,COc1cc2c(cc1OC)-c1cc3ccc(OC)c(OC)c3c[n+]1CC2 [Palmatine chloride],-0.034 °C

# A second format for part of the listing above:
row	Structure (SMILES)	thermal shift ΔTm of Mpro
2	Cc1[nH]c(/C=C2\C(=O)Nc3ccccc32)c(C)c1CCC(=O)O [TSU-68 (SU6668, Orantinib)]	0.248 °C
6	CC(=O)N1CCN(c2ccc(OCC3COC(Cn4ccnc4)(c4ccc(Cl)cc4Cl)O3)cc2)CC1 (centres undefined) [Ketoconazole]	0.385 °C
8	CN1CC[C@@]23CCCC[C@@H]2[C@@H]1Cc1ccc(O)cc13 [Dextrorphan tartrate]	0.0239 °C

# The results go on.

row,Structure (SMILES),thermal shift ΔTm of Mpro
1,C=CCc1ccc(O)c(-c2ccc(O)c(CC=C)c2)c1 [Honokiol],0.268 °C
2,O=C(O[C@@H]1Cc2c(O)cc(O)cc2O[C@@H]1c1cc(O)c(O)c(O)c1)c1cc(O)c(O)c(O)c1 [(-)-Epigallocatechin Gallate],0.609 °C
3,N#Cc1ccc2ncnc(NC3CCC(N4CCOCC4)CC3)c2c1 (centres undefined),0.0414 °C
4,CCN(CC)CCN(Cc1ccc(-c2ccc(C(F)(F)F)cc2)cc1)C(=O)Cn1c(SCc2ccc(F)cc2)nc(=O)c2c1CCC2,0.121 °C
5,CC[C@H]1CN2CCc3cc(OC)c(OC)cc3[C@@H]2C[C@@H]1C[C@H]1NCCc2cc(OC)c(OC)cc21 [(+)-Emetine dihydrochloride hydrate],-0.109 °C
6,N#C[C@@H]1CCCN1C(=O)CNC12CC3CC(CC(O)(C3)C1)C2 [Vildagliptin (LAF-237)],0.0692 °C
7,Cc1nc(Nc2n[nH]c3c2CN(C(=O)N[C@H](CN(C)C)c2ccccc2)C3(C)C)c2sccc2n1,0.0251 °C and 0.103 °C
8,CCn1cc(-c2ccnc3[nH]c(-c4cccc(CN(C)C)c4)cc23)c(-c2ccc(NC(=O)N(C)C)cc2)n1,-0.245 °C
9,CCOc1ccn(-c2ccc(F)cc2)c(=O)c1C(=O)Nc1ccc(Oc2ccnc(N)c2Cl)c(F)c1,-0.124 °C
10,CCC(=O)NS(=O)(=O)c1ccc(-c2c(-c3ccccc3)noc2C)cc1 [Parecoxib],0.0279 °C
11,CCN(CC)CCNC(=O)c1ccc(NC(C)=O)cc1 [Acecainide],0.234 °C
12,CCN(CC)CCNC(=O)c1ccc(NC(C)=O)cc1 [Acecainide hydrochloride],-0.00244 °C
13,C[C@@H]1CN(Cc2ccc(F)cc2)CCN1C(=O)COc1ccc(Cl)cc1NC(N)=O,0.258 °C
14,CNC[C@H](O)c1cccc(O)c1 [Phenylephrine HCl],-0.0477 °C
15,OC[C@H]1O[C@@H](OCCc2ccc(O)cc2)[C@H](O)[C@@H](O)[C@@H]1O [Salidroside],-0.0122 °C
16,COc1cc(CNC(=O)CCCC/C=C\C(C)C)ccc1O [Zucapsaicin],0.262 °C
17,COC(=O)c1ccc2c(c1)[nH]c1ncnc(NCCCN3CCCCC3)c12,-0.247 °C
18,C[C@H]1[C@H](NC(=O)/C(=N\OC(C)(C)C(=O)O)c2csc(N)n2)C(=O)N1S(=O)(=O)O [Aztreonam],0.56 °C
19,CC(C)S[C@@H]1O[C@H](CO)[C@H](O)[C@H](O)[C@H]1O,-0.0989 °C
20,Cc1cccc([C@H](C)c2c[nH]cn2)c1C [Dexmedetomidine],0.102 °C
21,Cc1cccc([C@H](C)c2c[nH]cn2)c1C [Dexmedetomidine HCl (Precedex)],0.118 °C

row,Structure (SMILES),thermal shift ΔTm of Mpro
1,CCc1c2c(nc3ccc(OC(=O)N4CCC(N5CCCCC5)CC4)cc13)-c1cc3c(c(=O)n1C2)COC(=O)[C@]3(O)CC [Irinotecan],0.168 °C
2,CCc1c2c(nc3ccc(OC(=O)N4CCC(N5CCCCC5)CC4)cc13)-c1cc3c(c(=O)n1C2)COC(=O)[C@]3(O)CC [Irinotecan HCl Trihydrate],-0.109 °C
3,COc1cc2c(cc1NS(=O)(=O)c1ccc(Br)cc1C)n(C)c(=O)n2C,-0.313 °C
4,CC(C)(O/N=C(\C(=O)N[C@@H]1C(=O)N2C(C(=O)[O-])=C(C[n+]3ccccc3)CS[C@H]12)c1csc(N)n1)C(=O)O [Ceftazidime],-0.114 °C
5,Cc1c(Cl)cccc1Nc1ncccc1C(=O)O [Clonixin],0.0343 °C
6,CCC[C@H](NC(=O)/C(C#N)=C/c1cccc(Br)n1)c1ccccc1 [Degrasyn (WP1130)],-0.545 °C
7,CCOC(=O)NCCCC(=O)NCCc1ccccc1,-0.116 °C
8,COc1ccc(Cl)cc1N(CC(=O)Nc1ccc2c(c1)OCO2)S(=O)(=O)c1ccccc1,-0.075 °C
9,Cc1cc(NC(=O)c2cccc(NC(=O)/C=C/CN(C)C)c2)ccc1Nc1nccc(-c2cccnc2)n1,-0.106 °C
10,CCOc1cc2ncc(C#N)c(Nc3ccc(OCc4ccccn4)c(Cl)c3)c2cc1NC(=O)/C=C/CN(C)C [Neratinib],0.0546 °C
11,Cc1cccc(Nc2cc(Cl)nc(SCC(=O)O)n2)c1C,-0.141 °C
12,O=C(N/N=C/c1ccc([N+](=O)[O-])o1)c1ccc(O)cc1 [Nifuroxazide],0.0358 °C
13,Cc1cn([C@@H]2C[C@@H](O)[C@H](CO)O2)c(=O)[nH]c1=O [Telbivudine],0.0766 °C
14,CC(=O)Nc1ccc(S(=O)(=O)Nc2ccc([N+](=O)[O-])cc2)cc1 [Sulfanitran],-0.00821 °C
15,CCc1cc(C(N)=S)ccn1 [Ethionamide],0.057 °C
16,OCC(Br)(Br)Br [Basibrol],0.254 °C
17,CC(=O)Nc1c(I)c(NC(C)=O)c(I)c(C(=O)O)c1I [Diatrizoate sodium],-0.0894 °C
18,O=C(NC(NC(=S)Nc1ccc(F)c([N+](=O)[O-])c1)C(Cl)(Cl)Cl)C(c1ccccc1)c1ccccc1 (centres undefined),0.815 °C
19,OCc1ccc(O[C@@H]2O[C@H](CO)[C@@H](O)[C@H](O)[C@H]2O)cc1 [Gastrodin],-0.0133 °C
20,Cn1cc(C2=C(c3ccc(Cl)cc3Cl)C(=O)NC2=O)c2ccccc21,0.17 °C
21,CCNC(=O)c1noc(-c2cc(Cl)c(O)cc2O)c1-c1ccc(OC)cc1,0.0849 °C

# Nothing new here: entries from further up.
row,Structure (SMILES),thermal shift ΔTm of Mpro
19,Cc1ccc2c(Nc3ccc(Cl)cc3)nccc2c1Nc1ncccc1-c1ncnc2nc[nH]c12 [B-Raf inhibitor 1],0.338 °C
20,COC(=O)[C@H]1[C@H]2C[C@@H]3c4[nH]c5cc(OC)ccc5c4CCN3C[C@H]2C[C@@H](OC(=O)c2cc(OC)c(OC)c(OC)c2)[C@@H]1OC [Reserpine],-0.179 °C
